Among the data in patent US20030108992A1 are binding values, retold here.

Amino acid sequences for entries named in this document (tags omitted). A change or cut given only in a name is not applied to a line headed by its entry. Residues count along the entry.
UniProt P25942, residues 21-222: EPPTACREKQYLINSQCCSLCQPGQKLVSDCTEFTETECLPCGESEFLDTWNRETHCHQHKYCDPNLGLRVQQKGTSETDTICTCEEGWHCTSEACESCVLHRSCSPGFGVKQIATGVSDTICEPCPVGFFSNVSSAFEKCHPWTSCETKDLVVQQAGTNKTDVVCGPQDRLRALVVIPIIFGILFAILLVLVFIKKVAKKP
UniProt O00220, residues 24-270: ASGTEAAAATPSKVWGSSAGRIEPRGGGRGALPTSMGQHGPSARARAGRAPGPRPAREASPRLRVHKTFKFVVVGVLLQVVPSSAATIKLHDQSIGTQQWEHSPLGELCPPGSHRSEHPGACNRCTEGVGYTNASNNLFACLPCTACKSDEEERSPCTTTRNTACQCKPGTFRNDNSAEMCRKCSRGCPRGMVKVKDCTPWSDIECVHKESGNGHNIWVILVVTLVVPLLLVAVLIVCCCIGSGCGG
UniProt P20333, residues 23-76: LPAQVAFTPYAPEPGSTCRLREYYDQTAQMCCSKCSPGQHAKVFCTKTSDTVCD

No constants are given. Whether binding was seen depends on the method and setting. Some results given as binding are weak or reduced against the parent protein; the word gives no strength.

The target in experiment [1] is CD40 CFP and YFP chimeras (FIG. 3C) (UniProt P25942). In words: flow cytometric FRET between CFP and YFP fusions. (In flow cytometry, cells or beads pass a laser one at a time.)
In experiment [2] the target is DR4 CFP and YFP chimeras (FIG. 3C) (UniProt O00220). In words: flow cytometric FRET between CFP and YFP fusions.
Experiment [3] addresses N-terminal region of the ECD of p80 (UniProt P20333). In words: yeast two-hybrid.

As to “CD40 CFP and YFP chimeras (FIG. 3C) (from UniProt P25942 21-222) (receptor)”, the binding result in experiment [1] is reported as “binds”.

In the case of “DR4 CFP and YFP chimeras (FIG. 3C) (from UniProt O00220 24-270) (receptor)”, in experiment [2], the binding result was “binds”.

Consider “N-terminal region of the ECD of p80 (from UniProt P20333 23-76) (receptor)”, for which the binding entry in experiment [3] is reported as “binds”.
